# Results of single-concentration screens

The chains behind the UniProt entries cited, without tags or fusion partners. Residues count along the entry.
UniProt Q8IDJ8, 1-583: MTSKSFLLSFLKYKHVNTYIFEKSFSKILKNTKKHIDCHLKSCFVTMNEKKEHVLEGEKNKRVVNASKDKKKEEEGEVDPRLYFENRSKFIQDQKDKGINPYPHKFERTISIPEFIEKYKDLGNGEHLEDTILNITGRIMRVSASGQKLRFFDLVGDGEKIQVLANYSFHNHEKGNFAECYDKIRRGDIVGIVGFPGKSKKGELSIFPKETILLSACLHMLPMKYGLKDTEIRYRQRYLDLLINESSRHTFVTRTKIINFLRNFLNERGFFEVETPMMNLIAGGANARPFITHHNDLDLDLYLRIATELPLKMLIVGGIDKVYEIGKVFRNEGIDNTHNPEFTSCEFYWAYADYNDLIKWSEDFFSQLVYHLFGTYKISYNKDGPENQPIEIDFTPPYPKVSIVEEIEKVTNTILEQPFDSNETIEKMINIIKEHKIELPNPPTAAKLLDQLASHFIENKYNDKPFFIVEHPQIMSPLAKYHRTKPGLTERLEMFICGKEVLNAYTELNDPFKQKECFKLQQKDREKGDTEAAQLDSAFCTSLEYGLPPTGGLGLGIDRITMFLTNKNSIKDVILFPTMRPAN

From ChEMBL document CHEMBL3988442, “University of Dundee, Small-Polar-MMV Screening Library” (2021).

Values are the deposited “Percent Effect”, in %. How 0% and 100% were set is not recorded. Most values in the screen are low, and negative values occur. The compounds are a random part of those screened.

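Enzyme assay of the cytosolic lysyl-tRNA synthetase in 384-well plates, read by luminescence. Target: Lysine-tRNA ligase, Plasmodium falciparum 3D7 (UniProt Q8IDJ8). Tested at 30 µM. Higher reads as stronger inhibition, judged from the few compounds that gave an IC50. Of about 69,000 compounds tested this way, about 49 (0.071%) reached 50% or more in at least one test.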

Result for O=C(Cc1ccccn1)N1C[C@@H](Oc2cccnc2)[C@H]2OCCC[C@H]21 was 2.395%. COc1ccc2c(C)nc(N3CCN([C@H]4CCCC[C@@H]4O)CC3)nc2c1 gave 1.262%. With c1cnn(CC2CCCN2c2ncnc3sccc23)c1 (stereo not shown) the screen gave 0.4235%. Result for COc1cc(NC(=O)NCC2CCCO2)cc(OC)c1OC (stereo not shown) was 2.286%. Result for COc1cccc(CN2CCC(c3cc(O)nc(C)n3)C2)c1 (stereo not shown) was 3.766%. Result for Cc1cc2[nH]c(CN3CCOC(Cc4ccccc4)C3)cc(=O)n2n1 (stereo not shown) was 1.654%.

CN1CC[C@]2(CN(CC3CCOCC3)C[C@H]2c2ccccc2)C1=O gave 4.304%. CCOc1ccccc1C1=CCN(C(=O)C2CCN(C)C(=O)C2)CC1 (stereo not shown) gave -1.763%. With O=C(NCC(F)F)c1ccc(S(=O)(=O)N2CCCC(O)C2)cc1 (stereo not shown) the screen gave -4.722%. CC(C)NC(=O)N1Cc2nccn2CC(COc2cccnc2)C1 (stereo not shown) gave 0.1179%. CC(C)c1nn(C)c(N2CCOCC2)c1CNC(C)c1cccs1 (stereo not shown) read 1.388%. COCc1noc(-c2ccc(N(C)Cc3c(C)n[nH]c3C)nc2)n1 read -0.2574%.

Cc1noc(CN(C)CC2CCCN(CCc3ccc(Cl)cc3)C2)n1 (stereo not shown) read 4.926%. COc1ccnc(N(C)Cc2ccccc2OC(F)(F)F)n1 gave -0.5581%. O=C(C1CC1)N(Cc1ccc2cc[nH]c2c1)C1CC1 read 1.416%. Result for O=S(=O)(Cc1ccccc1)NCCNc1ccc(-n2cccc2)nn1 was -1.709%. With CC(=O)N1CCN(C(=O)Nc2cnc3c(cnn3C(C)C)c2)CC1 the screen gave -0.2241%. CC(=O)OC1CN(c2nc3c(C)cccc3s2)C1 read 1.536%.

For CCOc1nnc(CN2CCN(CCOC)CC2)s1 the result was -1.693%. Result for CC(CNC(=O)c1ccon1)Oc1cccc(Br)c1 (stereo not shown) was -0.7143%. CN(CCC(N)=O)Cc1cc(Br)cs1 gave -0.8605%. COc1ccccc1C(NC(=O)C1CCCC1)c1noc(C)n1 (stereo not shown) read 6.289%. Cc1nn(C)c(C)c1C1COCCN1C(=O)Cc1cccc(F)c1 (stereo not shown) gave -2.794%. Result for CCCNC1(c2ccc(Cl)cc2)CCOCC1 was -0.09823%.

Result for O=C(NCc1ncc(-c2ccccc2)o1)NC1CCC(O)CC1 (stereo not shown) was 6.667%. O=C(NCC1CCOCC1)[C@@H]1C[C@@H]2CCN(Cc3ccco3)C[C@H]2O1 read -1.756%. Result for CC(=O)Oc1ccnc(C(F)(F)F)c1C(C)=O was -1.272%. Result for COc1ccccc1NC(=O)Cn1c(=O)nc(N)c2cc(C)sc21 was 6.113%. Result for Cc1nc2c(c(C)c1CC(=O)Nc1ccccc1F)c(=O)[nH]n2C was 2.737%. Result for O=S(=O)(NCCn1ccc(-c2cccs2)n1)C1CC1 was -1.881%.

For Cc1nn(CCC#N)c(C)c1CCC(=O)N(C)Cc1ccsc1 the result was 3.316%. Cc1ccc(O)c(CNc2cccc(OCCF)c2)n1 read -2.597%. For CN1CC(=O)N(c2ccsc2)CC12CCN(C(=O)Nc1ccccc1)C2 (stereo not shown) the result was 4.14%. With COCc1nn(C(C)C)c2c1CCN(Cc1ccc(C)s1)C2 the screen gave 1.223%. With Cn1ccnc1CN1CCCN(C(=O)c2ccc(Cl)o2)CC1 the screen gave 4.979%. With CC(=O)C1(c2ccccc2)CCN(C(=O)c2ccc3nnnn3c2)CC1 the screen gave -0.07246%.

CCn1nc(C)c2ccn(CC(=O)NCC3CCCO3)c(=O)c21 (stereo not shown) gave 0.8489%. With Cc1nc(NC(=O)CCc2c(C)nc3cc(O)nn3c2C)sc1C the screen gave -0.5726%. Result for CC(=O)N1CCO[C@@H]2CN(C(=O)c3ccc4ccccc4c3)CC[C@@H]2C1 was -1.369%. c1ccc(COC[C@@H]2CC[C@H]3[C@H](CCN3c3ncccn3)O2)nc1 read 0.9762%. Result for COCCCn1cnnc1C(C)NC(=O)c1[nH]c2ccc(C)cc2c1C (stereo not shown) was 7.546%. For CN(CCO)c1nc(-c2ccccn2)nc2c1CCNC2 the result was 6.99%.

With COc1ccc2cc(CN(C)CCc3cn[nH]c3)c(=O)[nH]c2c1 the screen gave 4.072%. CN(C)[C@@H]1CCN(C(=O)NC2CCCC2)[C@H]1Cc1cnn(C)c1 read -2.61%. CCc1n[nH]c(C2CN(C(=O)CCc3cscn3)CCO2)n1 (stereo not shown) gave -0.7205%. COCCNC(=O)CN(C)C(C)c1nc(C)no1 (stereo not shown) gave 5.187%. For CCOc1ccccc1C(=O)Nc1cccc(C[S+](C)[O-])c1C (stereo not shown) the result was -5.419%. Result for CCc1ncncc1C(=O)N1CCN(Cc2c(C)noc2C)CC1 was 1.125%.

With CN(C(=O)C1CCN(Cc2cnc3ccccn23)CC1)c1ccccc1 the screen gave 2.505%. With CC(C)N(C(=O)Cn1cc(Cl)cn1)c1ccccc1 the screen gave 3.735%. For O=C(NCc1ccccn1)Nc1cc(C(F)(F)F)c[nH]c1=O the result was 1.893%. Result for COc1ccc(CCC(=O)N(C)CCN2CCOCC2)cc1OC was -4.121%. For CCN(CC1CN(Cc2nccn2CC)CCO1)c1cccnn1 (stereo not shown) the result was 6.176%. Result for CN(Cc1ccco1)C[C@@H]1OC[C@H]2CN(Cc3nccs3)CC[C@H]21 was 1.847%.

With O=C(CN1CCCc2c(F)cc(Br)cc21)N1CCCC1 the screen gave -0.4017%. For N#Cc1ccccc1C(=O)N1CCC2(CC(=O)NC2=O)C1 (stereo not shown) the result was -4.024%. O=C(Nc1ccccc1)N1CCc2nc(C(=O)N3CCCC3)sc2CC1 gave 5.091%. CS(=O)(=O)N1CCCn2nc(CNc3cc(C#N)ccn3)cc2C1 gave 5.912%.